# Test results from PubChem BioAssay AID529 (NMMLSC, 2006).
# Sequences of proteins named here, by UniProt entry; tags and fusion partners are left off.
# UniProt P13612, whole entry, looked up: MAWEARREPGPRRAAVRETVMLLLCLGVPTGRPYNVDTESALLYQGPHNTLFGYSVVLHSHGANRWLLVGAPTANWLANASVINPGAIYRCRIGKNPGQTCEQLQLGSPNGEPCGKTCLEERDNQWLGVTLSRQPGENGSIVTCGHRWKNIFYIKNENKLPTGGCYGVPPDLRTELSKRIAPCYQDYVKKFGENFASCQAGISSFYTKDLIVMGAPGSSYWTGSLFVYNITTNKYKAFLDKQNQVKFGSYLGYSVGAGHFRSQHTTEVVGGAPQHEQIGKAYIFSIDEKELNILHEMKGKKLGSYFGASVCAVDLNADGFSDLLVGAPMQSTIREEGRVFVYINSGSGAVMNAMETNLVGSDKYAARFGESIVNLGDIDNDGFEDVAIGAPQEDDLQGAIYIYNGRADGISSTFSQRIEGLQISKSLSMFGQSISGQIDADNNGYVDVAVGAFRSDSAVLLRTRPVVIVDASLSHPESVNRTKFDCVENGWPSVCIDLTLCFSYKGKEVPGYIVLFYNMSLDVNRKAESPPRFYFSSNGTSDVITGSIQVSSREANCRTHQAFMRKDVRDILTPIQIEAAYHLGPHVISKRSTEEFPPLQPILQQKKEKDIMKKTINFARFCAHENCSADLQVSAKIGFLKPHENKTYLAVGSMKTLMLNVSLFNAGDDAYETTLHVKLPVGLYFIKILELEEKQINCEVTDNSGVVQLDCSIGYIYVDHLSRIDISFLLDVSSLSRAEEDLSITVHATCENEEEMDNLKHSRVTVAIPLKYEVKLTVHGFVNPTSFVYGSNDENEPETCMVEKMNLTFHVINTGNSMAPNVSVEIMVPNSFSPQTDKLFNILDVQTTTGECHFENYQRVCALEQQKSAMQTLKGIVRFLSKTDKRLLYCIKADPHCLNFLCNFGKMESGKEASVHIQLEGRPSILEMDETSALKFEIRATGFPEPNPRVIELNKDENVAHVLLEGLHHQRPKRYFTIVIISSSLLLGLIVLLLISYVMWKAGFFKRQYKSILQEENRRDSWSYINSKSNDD
# Screen size: about 24,000 compounds; about 50 (0.2%) were called active. This list was built around the results that the source calls inconclusive (neither active nor inactive); the mix of calls is not that of the screen.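 How the source made its calls: active means inhibition above 50%; inconclusive means compound itself fluorescent, judged against control cell fluorescence; inactive means the rest.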
# Molecular target: Integrin alpha-4 (Homo sapiens) (UniProt P13612)
# Assay: blockers of LDV-FITC ligand binding on VLA-4 – Jurkat cells, Mn2+ activated, primary screen (AID 529);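 on inhibition: 0% = Mn2+ stimulated cells lacking compound and 100% = ligand binding without Mn2+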
# Settings: LDV-FITC binding with Mn2+, flow cytometry; active compounds read high, screened at 10 µM (by protocol), 100% = Mn2+-driven binding gain fully reversed unless noted
row,SMILES,inhibition
1,O=C(CCNS(=O)(=O)c1cccc2nonc12)NC1CCCc2ccccc21 (stereo unspecified),inconclusive
2,CCc1c(C(=O)NC2CCCCC2)[nH]c(C)c1C(C)=O,inconclusive
3,O=C(NCN1CCN(c2ccccc2F)CC1)c1ccccc1,inconclusive
4,COc1ccc(N2CCN(C(=O)CCN3C(=O)c4ccccc4S3(=O)=O)CC2)cc1,inconclusive
5,COCCCNC(=O)CCS(=O)(=O)Cc1ccc(C)cc1,inactive: 0%
6,COc1ccc(NC(=O)Cn2cnc3c(cnn3-c3ccc(C)c(C)c3)c2=O)c(OC)c1,inconclusive
7,OCc1n[nH]c(CO)n1,"inactive: 2% [active compounds read high, 100% = Mn2+-driven binding gain fully reversed, screened at 10 µM (by protocol)]"
8,CCOC(=O)c1sc2nc(CC(=O)OC)nc(NCCN3CCOCC3)c2c1C,inconclusive
9,COc1ccc(-n2c(=S)[nH]c3cc(C(=O)NCCCN4CCCC4=O)ccc3c2=O)cc1,inconclusive
10,COc1ccc(Nc2nc(N)nc(CN3CCC(Cc4ccccc4)CC3)n2)cc1,inactive: 7%
11,Cn1c(=O)c2nc(-c3ccccc3)oc2c2ccccc21,inconclusive
12,c1cnn(-c2cc(N3CCOCC3)ncn2)c1,inconclusive
13,Cc1oc(-c2cccc(Cl)c2)nc1CN1CCCC(C(=O)NCCCN2CCOCC2)C1 (stereo unspecified),inactive: 9%
14,CCOC(=O)N1CCN(C(=O)C2CCCN(S(=O)(=O)c3cccnc3)C2)CC1 (stereo unspecified),inactive: 11%
15,CCOC(=O)N1CCC(NC(=O)CCc2c(C)nc3ncnn3c2C)CC1,inactive: 10%
16,COc1cc2[nH]c(=O)n(CCCC(=O)N3CC=C(c4ccccc4)CC3)c(=O)c2cc1OC,inconclusive
17,Cc1cc(Nc2ccc(Br)cc2F)n2ncnc2n1,inconclusive
18,CC(C)(C)n1nnnc1C(c1cccs1)N1CCN(Cc2ccccc2)CC1 (stereo unspecified),inactive: -17.5%
19,O=C(c1nnc(Cc2ccc(Cl)cc2)o1)N1CCOCC1,inconclusive
20,Nc1cc(OC(=O)c2cccs2)nn1S(=O)(=O)c1ccccc1,inconclusive
21,COc1ccc(OC)c(NC(=O)CC(Cc2ccccc2OC)C(=O)O)c1 (stereo unspecified),inconclusive
22,CCCCNC(=O)CC(=O)Nc1ccccc1C(=O)O,inactive: 7%
23,COC(=O)Cn1c(=NC(=O)CSCC(=O)Nc2cc(C)on2)sc2ccccc21,"inactive: -10.5% [active compounds read high, 100% = Mn2+-driven binding gain fully reversed, screened at 10 µM (by protocol)]"

row,SMILES,inhibition
1,CCCCN(CC)CCNS(=O)(=O)c1ccc2c(c1)oc(=O)n2C,inconclusive
2,c1ccc2c(c1)nc(N1CCN(C3CCCCC3)CC1)c1nnnn12,inconclusive
3,CCn1ccnc1C(O)c1cccc(OC)c1OC (stereo unspecified),inconclusive
4,CCc1nn(C(C)C(=O)N2CCN(Cc3ccccc3)CC2)c(=O)c2cc3occc3n12 (stereo unspecified),inconclusive
5,CCCn1c(CNC(=O)Cc2ccccc2)nc2ccccc21,inactive: 12%
6,COc1ccc(CCNC(=O)Cn2cnc3c2c(=O)n(C)c(=O)n3C)cc1OC,inconclusive
7,CN1CC=C2C(C#N)=C(N)C(C#N)(C#N)[C@H](c3cccc(Cl)c3)C2C1 (stereo partly specified),inconclusive
8,COc1ccc(Cn2nnc3c(=O)[nH]c(C4CCN(C(=O)c5ccccc5Cl)CC4)nc32)cc1,inconclusive
9,O=C(CSC1=NCCS1)Nc1nc2c(s1)CCCC2,inconclusive
10,CCN(CC)c1ccc(NC(=O)c2cnc3ccccn3c2=O)c(C)c1,inconclusive
11,COc1cccc(N2CCN(C(=O)CN(c3ccc(C)cc3)S(=O)(=O)c3c(C)n[nH]c3C)CC2)c1,inconclusive
12,COC(=O)C1Sc2[nH]c(=O)sc2C2c3ccccc3OC(=O)C12 (stereo unspecified),inconclusive
13,COc1cccc(C2N(c3ccc(Cl)cc3)C(=O)C3CCCN32)c1 (stereo unspecified),inconclusive
14,O=C1CC(Cc2ccccc2)C(=O)N1CCCn1ccnc1 (stereo unspecified),inactive: -17.5%
15,CCOc1cc2[nH]c(=O)n(CC3CCC(C(=O)NC4CCCCC4)CC3)c(=O)c2cc1OCC (stereo unspecified),inactive: 9%
16,Cc1nc2sc(C(c3ccco3)N3CCc4ccccc4C3)c(O)n2n1 (stereo unspecified),inconclusive
17,O=c1[nH]c2c(s1)C(c1ccco1)C1C3CCC(C3)C1S2 (stereo unspecified),inactive: 22%
18,CC1=Nc2ccc(C)cc2N(Cc2ccccc2)C(=O)C1,inconclusive
19,C=CCNC(=O)CCCCCNS(=O)(=O)c1ccc(OC)cc1,inconclusive
20,O=C(CNS(=O)(=O)c1ccc(Br)s1)N1CCC(N2CCCCC2)CC1,inactive: -20%
21,CC(C)Cc1cc(C(=O)Nc2sc3c(c2C#N)CCCC3)no1,inactive: -18%
22,O=C(Nc1cccnc1)C(Cc1ccccc1)n1cccc1 (stereo unspecified),inconclusive
23,COC(=O)c1cc2oc(C)cc2n1CC(=O)N1CCCc2ccccc21,inconclusive

# Sorted by SMILES length (smallest number first): 3 of the compounds above.
row,SMILES,inhibition
5,CCCn1c(CNC(=O)Cc2ccccc2)nc2ccccc21,inactive: 12%
18,CC1=Nc2ccc(C)cc2N(Cc2ccccc2)C(=O)C1,inconclusive
23,COC(=O)Cn1c(=NC(=O)CSCC(=O)Nc2cc(C)on2)sc2ccccc21,"inactive: -10.5% [active compounds read high, 100% = Mn2+-driven binding gain fully reversed, screened at 10 µM (by protocol)]"

# Remaining list, next part

row,SMILES,inhibition
1,COc1ccc(C2C=C(c3cccs3)Nc3nc(CCCO)nn32)cc1 (stereo unspecified),inconclusive
2,CCOCCCNC(=O)c1cc2c(-c3ccc(Cl)cc3)nn(C)c2s1,inactive: -13%
3,CCOC(=O)c1nnn(-c2nonc2N)c1-c1ccc(OC)cc1,inactive: -9%
4,CN(C(=O)C1CCOC1)c1nnc(-c2cccnc2)s1 (stereo unspecified),"inactive: -8% [active compounds read high, 100% = Mn2+-driven binding gain fully reversed, screened at 10 µM (by protocol)]"
5,CC1CN(S(=O)(=O)c2ccc(NC(=O)CCN3C(=O)c4ccccc4C3=O)cc2)CC(C)O1 (stereo unspecified),inconclusive
6,CCOC(=O)CSc1cc(=O)n(C)c2cc(Cl)ccc12,inactive: 5%
7,COc1ccc(-n2nnc3c(SCC(=O)N4CCCc5ccccc54)ncnc32)cc1,inconclusive
8,CCOC(=O)c1cc2c(=O)n3ccccc3nc2n(CCCOC)c1=NC(C)=O,inconclusive
9,Cc1c(C(=O)NCc2ccc3c(c2)OCO3)oc2ccc(S(=O)(=O)N3CCC(C)CC3)cc12,inactive: 19%
10,COc1ccc(-c2noc(-c3cc(C)cc(C)c3)n2)cc1OC,inconclusive
11,CC1=C(C(=O)Nc2cccnc2)C(c2ccccn2)n2nnnc2N1 (stereo unspecified),inconclusive
12,CCOC(=O)N1CCN(C(=O)CS(=O)Cc2nc(-c3ccc(C)cc3)oc2C)CC1 (stereo unspecified),inconclusive
13,COc1ccc(Cl)cc1N1CCN(CCNC(=O)Nc2ccccc2C)CC1,inactive: 5.5%
14,Cc1nn(-c2ccccc2)c(C)c1NC(=O)Cc1cccs1,inconclusive
15,COc1ccc(NC(=O)CSc2nc3c(c(=O)[nH]2)CCC3)cc1OC,inactive: -15%
16,Cc1cccc(N2C(=O)CC(N(C(=O)c3ccco3)c3cccc(C)c3)C2=O)c1 (stereo unspecified),inactive: 13%
17,COC(=O)C1C(=O)c2c([nH]c(C(=O)OC3CCCC3C)c2C)CC1C (stereo unspecified),inconclusive
18,CCOc1ccc(NC(=O)CCN2CCN(S(=O)(=O)c3cc(Cl)ccc3OC)CC2)cc1,inconclusive
19,Cc1ccc(NC(=O)c2cc(-c3ccc(C)o3)nc3ccccc23)nc1,inconclusive
20,C=CCOc1ccc(C2c3c(oc4ccccc4c3=O)C(=O)N2c2ccccn2)cc1OCC (stereo unspecified),inactive: -13%
21,CCN1CCN(c2ccc(-n3c(C)nc4c(cnn4-c4ccccc4Cl)c3=O)cc2)CC1,inconclusive
22,Cc1ccc2cc3cc(C(=O)NCCC(C)C)oc3nc2c1,inconclusive
23,Cc1ccc(C)c(S(=O)(=O)n2cnc3ccccc32)c1,inconclusive

row,SMILES,inhibition
1,COc1cc2c(cc1O)C(SC)=NC(C)(C)C2,inconclusive
2,COC(=O)c1ccc(CSc2nc(C(F)(F)F)c3c(c2C#N)CCC3)o1,inconclusive
3,COC(=O)c1[nH]c2cccc(C)c2c1NC(=O)CN1CCCc2ccccc21,inconclusive
4,CN1CCN(CCCNC(=O)Nc2cccc3ccccc23)CC1,inactive: -7.8%
5,Cc1ccc(CCNC(=O)CN2C(=O)COc3ccccc32)cc1,active: 62%
6,COc1ccc(-c2nnc3ccc(SCC(=O)N4CCN(c5ccccc5)CC4)nn23)cc1OC,inactive: -4%
7,CCOc1ccc(C2CC(c3ccccc3C)n3ncnc3N2)cc1 (stereo unspecified),inconclusive
8,Cc1c(C(=O)N2CCN(c3ccccc3F)CC2)sc2ncn(CC(=O)N3CCOCC3)c(=O)c12,inactive: -8%
9,Cc1ccc(S(=O)(=O)N(CCO)c2cc3c(s2)CCCC3)cc1,inconclusive
10,O=C(CN1C(=O)CC(c2ccco2)Sc2ccccc21)Nc1ccc2c(c1)OCCO2 (stereo unspecified),inactive: 2%
11,Fc1cccc(Nc2cc(-n3cccn3)ncn2)c1,inactive: 3.5%
12,CCCn1c(=O)c2ccccc2n2c(SCc3cc(=O)n4ccsc4n3)nnc12,inconclusive
13,COCCn1nnnc1C(c1cc2cc(OC)ccc2[nH]c1=O)N1CCC(Cc2ccccc2)CC1 (stereo unspecified),inconclusive
14,C/C=C(\C)c1nnc(NC(=O)OCC)s1,inconclusive
15,O=C(CSc1nc2ccccc2c(=O)[nH]1)N1CCCCC1,inconclusive
16,Cc1ccc(CNC(=O)Cn2c(=O)oc3ccccc32)o1,inconclusive
17,COc1ccc(C2C3=C(CCCC3=O)Nc3nc(-c4cc(OC)c(OC)c(OC)c4)nn32)cc1OC (stereo unspecified),inconclusive
18,FC(F)(F)C(F)(F)C(F)(F)c1nnc2ccc(N3CCOCC3)nn12,inactive: 1%
19,CCOC(=O)C1CCCN(C(=O)Cn2sc3nc(C)cc(C)c3c2=O)C1 (stereo unspecified),inconclusive
20,Cn1c(=O)oc2cc(S(=O)(=O)NCCN3CCCCCC3)ccc21,inconclusive
21,CCOc1ccc(C2C(C(=O)O)c3ccccc3C(=O)N2CCN2CCOCC2)cc1 (stereo unspecified),"inactive: -12.1% [active compounds read high, 100% = Mn2+-driven binding gain fully reversed, screened at 10 µM (by protocol)]"
22,CC(=O)N1CCc2cc(S(=O)(=O)NCCCN3CCN(Cc4ccccc4)CC3)ccc21,inconclusive

# Single values from above:
# Value for COc1ccc(C2C3=C(CCCC3=O)Nc3nc(-c4cc(OC)c(OC)c(OC)c4)nn32)cc1OC (stereo unspecified) under inhibition: inconclusive
# Value for COC(=O)c1ccc(CSc2nc(C(F)(F)F)c3c(c2C#N)CCC3)o1 under inhibition: inconclusive
# Value for Fc1cccc(Nc2cc(-n3cccn3)ncn2)c1 under inhibition: inactive: 3.5%
# Value for CCOC(=O)C1CCCN(C(=O)Cn2sc3nc(C)cc(C)c3c2=O)C1 (stereo unspecified) under inhibition: inconclusive
